According to patent US20170065663A1, “SUBSTANCE AND METHOD FOR TREATING INFLUENZA” (priority 2014, published 2017):
“Also recorded” adds a separate entry of the source. Read-outs that look alike come from different tables or passages of the source. Part of at least one peptide drawing is inferred or uncertain, most often the ends. Some compounds share one wording; it may come from a single statement. Some entries share one result that the patent states for a list of compounds.

Experiments:
[1] = Example II: degradation of further Substance P analogs in IMDM media with 2.5% fetal bovine serum; conditions: 72 hours, present tense
influenza [2] = conditions: in vivo, iv
[3] = test system: influenza virus subtypes H1N1, H3N2, H5N1 and H7N9; parameters: species or system mice, cotton rats and ferrets; conditions: in vivo
Influenza/A/Wuhan/359/95 [4] = test system: Influenza/A/Wuhan/359/95; parameters: species or system cotton rats (Sigmodon Hispidus); conditions: rat, in vivo
influenza [5] = conditions: in vivo
[6] = test system: influenza virus subtypes H1N1, H3N2, H5N1 and H7N9; parameters: species or system mice, cotton rats and ferrets; conditions: in vivo; remark: listed apart in the source
Influenza/A/Wuhan/359/95 [7] = test system: Influenza/A/Wuhan/359/95; parameters: species or system cotton rats (Sigmodon Hispidus); conditions: rat, in vivo; remark: listed apart in the source
[8] = test system: Influenza A/Whooperswan/Mongolia/244/2005 (H5N1); parameters: species or system Fitch ferrets; conditions: in vivo
Influenza/A/Wuhan/359/95 [9] = test system: Influenza/A/Wuhan/359/95; parameters: species or system cotton rats (Sigmodon Hispidus); conditions: rat, in vivo; remark: listed apart in the source
[10] = test system: influenza virus subtypes H1N1, H3N2, H5N1 and H7N9; parameters: species or system mice, cotton rats and ferrets; conditions: in vivo; remark: listed apart in the source

| Compound | initial concentration recovered [1] | inflammatory state of the lungs (interstitial inflammation and alveolitis) (influenza [2]) | flu-related symptoms compared with placebo [3] | other results |
| --- | --- | --- | --- | --- |
| CSCC[C@H](NC(=O)[C@H](CC(C)C)NC(=O)CNC(=O)[C@H](Cc1ccc(Cl)cc1)NC(=O)[C@H](Cc1ccc(Cl)cc1)NC(=O)[C@H](CCC(N)=O)NC(=O)[C@H](CCC(N)=O)NC(=O)[C@@H]1CCCN1C(=O)[C@H](CCCCN)NC(=O)[C@@H]1CCCN1C(=O)[C@@H](N)CCCNC(=N)N)C(N)=O [[p-Cl-Phe^7,8]-substance P] | greater than 50% | reduction in interstitial inflammation and alveolitis | fewer flu-related symptoms |  |
| CSCC[C@H](NC(=O)[C@H](CC(C)C)NC(=O)[C@@H]1CCCN1C(=O)[C@H](Cc1ccccc1)NC(=O)[C@H](Cc1ccccc1)NC(=O)[C@H](CCC(N)=O)NC(=O)[C@H](CCC(N)=O)NC(=O)[C@@H]1CCCN1C(=O)[C@H](CCCCN)NC(=O)[C@@H]1CCCN1C(=O)[C@@H](N)CCCNC(=N)N)C(N)=O [[Pro^9]-substance P] | greater than 50% | reduction in interstitial inflammation and alveolitis | fewer flu-related symptoms |  |
| CC(C)C[C@H](NC(=O)CN(C)C(=O)[C@H](Cc1ccccc1)NC(=O)[C@H](Cc1ccccc1)NC(=O)[C@H](CCC(N)=O)NC(=O)[C@H](CCC(N)=O)NC(=O)[C@@H]1CCCN1C(=O)[C@H](CCCCN)NC(=O)[C@@H]1CCCN1C(=O)[C@@H](N)CCCNC(=N)N)C(=O)N[C@@H](CCS(C)(=O)=O)C(N)=O |  | reduction in interstitial inflammation and alveolitis | fewer flu-related symptoms | body weight loss during the infection time course (Influenza/A/Wuhan/359/95 [4]): less than 3%; lung viral titers (Influenza/A/Wuhan/359/95 [4]): reduced lung viral titers; however the findings did not achieve statistical significance; nasal viral titers (Influenza/A/Wuhan/359/95 [4]): statistically-significant (p<0.05) reductions; also recorded: statistically-significantly reduced nasal viral titers; inflammatory state of the lungs (interstitial inflammation and alveolitis) (influenza [5]): reduction in interstitial inflammation and alveolitis; clinical symptoms (temperatures and body weights), virus titers, and pulmonary inflammation [6]: all reduced; body weight loss (Influenza/A/Wuhan/359/95 [7]): less body weight loss relative to infected animals treated with Tamiflu® or a control vehicle; effect of peptide dose on animal weight loss (Influenza/A/Wuhan/359/95 [7]): did not significantly affect animal weight loss; pulmonary inflammation (alveolitis and interstitial inflammation) (Influenza/A/Wuhan/359/95 [7]): lower levels of pulmonary inflammation; quantitative illness reduced sooner than vehicle-treated controls [8]: approximately 2 days; sickness scores [8]: sickness scores were reduced sooner; survival of infected animals [8]: 80%; temperature increases (fever) [8]: normalized quicker; weight loss ([8]; 2 mg/kg): this effect was not observed; nasal viral titers (Influenza/A/Wuhan/359/95 [9]): nearly statistically-significant (p=0.05) reductions; clinical symptoms (temperatures and body weights), virus titers, and pulmonary inflammation [10]: reduced; flu-related symptoms compared with placebo [10]: fewer flu-related symptoms |
| CSCC[C@H](NC(=O)[C@H](CC(C)C)NC(=O)CN(C)C(=O)[C@H](Cc1ccccc1)NC(=O)[C@H](Cc1ccccc1)NC(=O)[C@H](CCC(N)=O)NC(=O)[C@H](CCC(N)=O)NC(=O)[C@@H]1CCCN1C(=O)[C@H](CCCCN)NC(=O)[C@@H]1CCCN1C(=O)[C@@H](N)CCCNC(=N)N)C(N)=O [[Sar^9]-substance P] | greater than 50% | reduction in interstitial inflammation and alveolitis | fewer flu-related symptoms |  |
| COC(=O)[C@H](CCSC)NC(=O)[C@H](CC(C)C)NC(=O)CNC(=O)[C@H](Cc1ccccc1)NC(=O)[C@H](Cc1ccccc1)NC(=O)[C@H](CCC(N)=O)NC(=O)[C@H](CCC(N)=O)NC(=O)[C@@H]1CCCN1C(=O)[C@H](CCCCN)NC(=O)[C@@H]1CCCN1C(=O)[C@@H](N)CCCNC(=N)N [[Met-OMe^11]-substance P] | greater than 50% | reduction in interstitial inflammation and alveolitis | fewer flu-related symptoms |  |
| CSCC[C@H](NC(=O)[C@H](CC(C)C)NC(=O)CNC(=O)[C@H](Cc1ccc(O)cc1)NC(=O)[C@H](Cc1ccccc1)NC(=O)[C@H](CCC(N)=O)NC(=O)[C@H](CCC(N)=O)NC(=O)[C@@H]1CCCN1C(=O)[C@H](CCCCN)NC(=O)[C@@H]1CCCN1C(=O)[C@@H](N)CCCNC(=N)N)C(N)=O [[Tyr^8]-substance P] | greater than 50% | reduction in interstitial inflammation and alveolitis | fewer flu-related symptoms |  |
| CCCC[C@H](NC(=O)[C@H](CC(C)C)NC(=O)CNC(=O)[C@H](Cc1ccccc1)NC(=O)[C@H](Cc1ccccc1)NC(=O)[C@H](CCC(N)=O)NC(=O)[C@H](CCC(N)=O)NC(=O)[C@@H]1CCCN1C(=O)[C@H](CCCCN)NC(=O)[C@@H]1CCCN1C(=O)[C@@H](N)CCCNC(=N)N)C(N)=O [[Nle^11]-substance P] | greater than 50% | reduction in interstitial inflammation and alveolitis | fewer flu-related symptoms |  |
| CSCC[C@H](NC(=O)[C@H](CC(C)C)NC(=O)CNC(=O)[C@H](Cc1ccccc1)NC(=O)[C@H](Cc1ccccc1)NC(=O)[C@H](CCC(N)=O)NC(=O)[C@H](CCC(N)=O)NC(=O)[C@@H]1CCCN1C(=O)[C@H](CCCCN)NC(=O)[C@@H]1CCCN1C(=O)[C@@H](N)CCCNC(=N)N)C(=O)O [[Met-OH^11]-substance P] | greater than 50% | reduction in interstitial inflammation and alveolitis | fewer flu-related symptoms |  |
